Consider 1 substance from patent publication US7700717B2 (DeveloGen Israel Ltd., priority 2002, dated 2010).

A short description of this series: peptide synthesis. The settings on record: whole synthesis.

As for “5- and 6-carboxyfluorescein-Lys(GABA*-Phe-Trp-DTrp-Lys-Thr-Phe-GlyC3*)-NH2”, the “final purity (method not given)” value amounted to 98% and the isolated yield was 0.8%.
